Results deposited as PubChem BioAssay AID1259297 (Sanger Institute, 2017).
Test: 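Kinases whose loss kills cells on their own or with targeted drugs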 (primary screen). Cell system: human RCM1 colorectal cancer cell line. Reagent: siRNA pool against human genes. Treatment: separate arms: DMSO vehicle, or one anchor drug at a mild dose: BYL719 1 µM, cetuximab 5 µg/ml, trametinib 10 nM. Detection: 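Replicate-mean well viability as a share of non-targeting pool control, a robust z-score without drug, and synergy scores for BYL719, cetuximab and trametinib arms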. Scale: viability z-score, knock-down alone: higher = more viable cells than non-targeting controls. Hit rule: 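Essential when the viability robust z-score for knock-down alone is below -3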. Meaning of the calls: active = essential when knocked down alone; inactive = no clear loss of viability alone.
In all, the deposit lists 794 reagents; this is an unselected part. In the full data, 13 (1.6%) are marked active. 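Calls reflect knock-down without drug only; drug synergy is judged separately, with scores above 0.15 counted as synergy.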 Not all columns of the deposit are shown. Reagent sequences are not shown. The record does not give: the amount of reagent, the time to read-out.

CDKL5: viability z-score, knock-down alone = 0.511; activity call = inactive
PAK1: viability z-score, knock-down alone = -2.38; activity call = inactive
CKM: viability z-score, knock-down alone = -0.249; activity call = inactive
GRK3: viability z-score, knock-down alone = 0.9; activity call = inactive
STK10: viability z-score, knock-down alone = -1.7; activity call = inactive
ERN1: viability z-score, knock-down alone = -2.02; activity call = inactive
IDH2: viability z-score, knock-down alone = 0.9; activity call = inactive
PSKH2: viability z-score, knock-down alone = -0.476; activity call = inactive
NTRK3: viability z-score, knock-down alone = 0.9; activity call = inactive
CKMT2: viability z-score, knock-down alone = 0.339; activity call = inactive
CHEK1: viability z-score, knock-down alone = -5.22; activity call = active
CDK20: viability z-score, knock-down alone = -2.1; activity call = inactive
CDK18: viability z-score, knock-down alone = -0.27; activity call = inactive
MAP4K3: viability z-score, knock-down alone = -0.0931; activity call = inactive
MARK3: viability z-score, knock-down alone = -1.57; activity call = inactive
MAP2K5: viability z-score, knock-down alone = 0.582; activity call = inactive
EFNB3: viability z-score, knock-down alone = -1.81; activity call = inactive
MAP2K3: viability z-score, knock-down alone = -1.03; activity call = inactive
PAK6: viability z-score, knock-down alone = 0.9; activity call = inactive

Single entries from above.
STK10, viability z-score, knock-down alone = -1.7
Entry of MAP4K3 in “activity call”: inactive
